Experimental data taken from publication PMC9622807.
Results are given in words; binding and its absence hold for the method and conditions named. Binding seen in cells or lysates may run through a third protein. These calls come from enrichment with a bait or labelling near it, and not all partners need be listed.

Biological target: circBNC2-translated protein (ctBNC2) (human (endogenous in HK2))
Assay: affinity purification with mass spectrometry; HK2 lysates immunoprecipitated with anti-ctBNC2 or anti-BNC2, normal IgG as negative control; silver-stained gel bands (25–35 and 55–70 kDa) analysed by LC-MS; three independent experiments

- binding: binds
B1: CCT2 (protein, UniProt P78371 1-535)
chain: MASLSLAPVNIFKAGADEERAETARLTSFIGAIAIGDLVKSTLGPKGMDKILLSSGRDASLMVTNDGATILKNIGVDNPAAKVLVDMSRVQDDEVGDGTTSVTVLAAELLREAESLIAKKIHPQTIIAGWREATKAAREALLSSAVDHGSDEVKFRQDLMNIAGTTLSSKLLTHHKDHFTKLAVEAVLRLKGSGNLEAIHIIKKLGGSLADSYLDEGFLLDKKIGVNQPKRIENAKILIANTGMDTDKIKIFGSRVRVDSTAKVAEIEHAEKEKMKEKVERILKHGINCFINRQLIYNYPEQLFGAAGVMAIEHADFAGVERLALVTGGEIASTFDHPELVKLGSCKLIEEVMIGEDKLIHFSGVALGEACTIVLRGATQQILDEAERSLHDALCVLAQTVKDSRTVYGGGCSEMLMAHAVTQLANRTPGKEAVAMESYAKALRMLPTIIADNAGYDSADLVAQLRAAHSEGNTTAGLDMREGTIGDMAILGITESFQVKRQVLLSAAEAAEVILRVDNIIKAAPRKRVPDHHPC
